We go through two molecules from article PMC8568140, “Assembly of infectious Kaposi’s sarcoma-associated herpesvirus progeny requires formation of a pORF19 pentamer” (PLoS Biology, 2021).

Assay [1] addresses HCMV pUL77 carboxyl-terminal domain (pUL77CTD) (human cytomegalovirus (HCMV)) (UniProt P16726). The experiment in a line: SEC; Superdex 200 Increase 10/300 GL, 10 mM Tris pH 7.5, 1 M NaCl (high salt); oligomeric state estimated from the elution volume against a MW standard; both purified.
Assay [2] shares this target. The experiment in a line: crystal structure; sitting drop, 18°C, 0.08 M Na-cacodylate pH 6.5, 16% PEG 8000, 20% glycerol; P4122, 1.9 Å; one molecule in the asymmetric unit; both purified.
The target in assay [3] is KSHV pORF19 carboxyl-terminal domain (pORF19_(KCTD)) (Kaposi's sarcoma-associated herpesvirus (KSHV)) (UniProt Q2HRB3). The experiment in a line: condition: only in SEC buffer (10 mM Tris pH 7.5, 50 mM NaCl); AUC; sedimentation velocity, 40,000 rpm, 20°C, SEC buffer (10 mM Tris pH 7.5, 50 mM NaCl); c(s) analysis; both purified.
For assay [4] the target is unchanged. The experiment in a line: condition: only in low salt SEC buffer (10 mM Tris pH 7.5, 50 mM NaCl); SEC; Superdex 200 Increase 10/300 GL, 10 mM Tris pH 7.5, 50 mM NaCl (low salt); oligomeric state estimated from the elution volume against a MW standard; both purified.

These are yes or no findings as the source states them, for the method shown.

“HCMV pUL77 carboxyl-terminal domain (pUL77CTD) (from UniProt P16726 180-642) (domain or fragment)”: the binding entry in assay [1] and in assay [2] was “no binding” each time.

B1: KSHV pORF19 carboxyl-terminal domain (pORF19_(KCTD)) (domain or fragment)
chain: ASHRNFTVAIVPGDPHFSVDRDLRGELMPTLYMNQNQWLPSFGPWFISLTDNAMQRRVFPKELKGTVNFQNSTSLKLISHTLTTVASTTADFFADARHLTDTQAALCLVNAYFCQKTSRQLPATPDDLLADLPQKLDLLITQLKQESGPGDFSFTYSNPQERASLAPLNKESRYPTAFFQRHKLHAMMAKAGLFPHNKGTGAPGTAPAMDLVFAITSAMFGSDIPPFSAYQWNLRAGIVALEVFILAYGLLEFGQVARGHPNRRLNLVSLLGPKFQPGALPDPNAPMLKRGQLFSFISEHYIIPTLQANPNAPVSFIFPGIILAALEARSTVSHKQPGPFVNLTGSRFNEIFEILNQQLTFRDPLALLQARTALRLATEEGLDVLLSHPSPPTLLQEIIKSQFGGGDDYDRAYFMVLGCLPVVLAVV
notes: The His tag was removed with carboxypeptidase after a first SEC; Two of the three crystal forms (P21, P6322) were of a selenomethionine derivative; also called wt pORF19_(KCTD); KSHV pORF19 CTD; source: E. coli Rosetta (DE3), purified (HisTrap, SEC); not shown: His tag, C-terminal, cleaved
For B1, the binding result in assay [3] and in assay [4] was “no binding” throughout.
